PubChem BioAssay AID1259405 – NCATS – 2018

- Assay: 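Knock-downs that lift recombinant protein yield in hamster ovary cells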 (primary screen)
- Cells: Chinese hamster CHO-K1 ovary cells with stable secreted eGFP expression
- Reagent: single siRNA against mouse genes, 0.8 pmol siRNA per well (2 µl of 400 nM stock)
- Duration: 3 days
- Read-out: 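Percent of the per-plate non-targeting control median for intracellular GFP per well by laser scanning cytometry and for cell viability by ATP luminescence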
- Scale: GFP, % of control: higher = more GFP per well, higher productivity; viability (ATP), % of control: higher = more viable cells (more ATP)
- Call rule: 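a knock-down is called active if GFP reaches 120% or more of non-targeting control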
Here is one part, drawn at random, of about 50,000 reagents. Of all reagents, about 4,000 (8%) got an active call. 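Mouse siRNA library applied to hamster cells; one well for each siRNA.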 The numbers tell different reagents against one gene apart. Reagent sequences are not shown.

Or5p70 #1 showed GFP, % of control 76.5; viability (ATP), % of control 67.7; inactive.
With knock-down of Or5p70 #2, the screen gave GFP, % of control 96.8; viability (ATP), % of control 77.8; inactive.
Or5p70 #3 scored GFP, % of control 86.8; viability (ATP), % of control 66.7; inactive.
With knock-down of Glrx #1, the record shows GFP, % of control 95.7; viability (ATP), % of control 115; inactive.
Knock-down of Glrx #2 came out at: GFP, % of control 107; viability (ATP), % of control 68.8; inactive.
With knock-down of Glrx #3, the screen gave GFP, % of control 71.1; viability (ATP), % of control 83; inactive.
Depletion of C1qtnf7 #1 gave: GFP, % of control 45.2; viability (ATP), % of control 38.8; inactive.
With knock-down of C1qtnf7 #2, the record shows GFP, % of control 84.7; viability (ATP), % of control 49.3; inactive.
Silencing of C1qtnf7 #3 resulted in: GFP, % of control 59.3; viability (ATP), % of control 43.3; inactive.
Gm4814 #1 gave GFP, % of control 64.5; viability (ATP), % of control 65.3; inactive.
Depletion of Gm4814 #2 gave: GFP, % of control 79.6; viability (ATP), % of control 98.1; inactive.
Gm4814 #3 gave GFP, % of control 110; viability (ATP), % of control 121; inactive.
For Clcn6 #1, the values are GFP, % of control 102; viability (ATP), % of control 95.1; inactive.
Against Clcn6 #2 the deposit lists GFP, % of control 23.8; viability (ATP), % of control 24.9; inactive.
Knock-down of Clcn6 #3 gave: GFP, % of control 87.1; viability (ATP), % of control 81.5; inactive.
For Pold3 #1, the values are GFP, % of control 39.8; viability (ATP), % of control 90.9; inactive.
After knock-down of Pold3 #2 the results were GFP, % of control 102; viability (ATP), % of control 89.7; inactive.
For Smarca4 #1 the deposit lists GFP, % of control 96.4; viability (ATP), % of control 94.8; inactive.
Depletion of Smarca4 #2 resulted in: GFP, % of control 82.2; viability (ATP), % of control 52.5; inactive.
Against Smarca4 #3, the values are GFP, % of control 102; viability (ATP), % of control 78.5; inactive.
Against Or10v5 #1 the deposit lists GFP, % of control 140; viability (ATP), % of control 111; active.
Or10v5 #2 scored GFP, % of control 66.5; viability (ATP), % of control 73.6; inactive.
Knock-down of Or10v5 #3 resulted in: GFP, % of control 30.6; viability (ATP), % of control 51.8; inactive.
Il1r1 #1 scored GFP, % of control 104; viability (ATP), % of control 95.2; inactive.
Knock-down of Il1r1 #2 resulted in: GFP, % of control 27.7; viability (ATP), % of control 42.7; inactive.
Silencing of Il1r1 #3 resulted in: GFP, % of control 55.7; viability (ATP), % of control 43.3; inactive.
For Gprasp1 #1 the deposit lists GFP, % of control 70; viability (ATP), % of control 58.2; inactive.
Against Gprasp1 #2, the entry reads GFP, % of control 103; viability (ATP), % of control 158; inactive.
Against Gprasp1 #3, the entry reads GFP, % of control 76.5; viability (ATP), % of control 82.2; inactive.
For Rsrc1 #1 the deposit lists GFP, % of control 72.8; viability (ATP), % of control 105; inactive.
After knock-down of Rsrc1 #2 the results were GFP, % of control 86.2; viability (ATP), % of control 104; inactive.
Knock-down of Rsrc1 #3 came out at: GFP, % of control 70.7; viability (ATP), % of control 75.8; inactive.
Ndufs1 #1 scored GFP, % of control 59.2; viability (ATP), % of control 51.6; inactive.
After knock-down of Ndufs1 #2, the screen gave GFP, % of control 87.4; viability (ATP), % of control 69.3; inactive.
For Ndufs1 #3, the entry reads GFP, % of control 60.1; viability (ATP), % of control 68.8; inactive.
With knock-down of Ptpn11 #1, the screen gave GFP, % of control 48.9; viability (ATP), % of control 37.3; inactive.
After knock-down of Ptpn11 #2, the record shows GFP, % of control 88.4; viability (ATP), % of control 77.6; inactive.
Knock-down of Ptpn11 #3 resulted in: GFP, % of control 66.7; viability (ATP), % of control 77.7; inactive.
Depletion of Elavl2 #1 came out at: GFP, % of control 118; viability (ATP), % of control 119; inactive.
With knock-down of Elavl2 #2, the screen gave GFP, % of control 32.4; viability (ATP), % of control 43.2; inactive.
Elavl2 #3 gave GFP, % of control 98.5; viability (ATP), % of control 94.7; inactive.

Entries listed so far with an active call:
Or10v5 #1: GFP, % of control = 140; viability (ATP), % of control = 111; outcome = active
